In test [1] the target is BMI1 (B lymphoma Mo-MLV insertion region 1) (human (endogenous in C4-2, 22Rv1, LuCaP PDX tissue, 293T)) (UniProt P35226). In words: co-IP; fractions #16 and #26 of the size-exclusion chromatography of C4-2 nuclear extracts; IP with anti-BMI1, anti-AR or anti-RING1B, rabbit IgG as control. In general terms: Size exclusion chromatography separates by hydrodynamic size, large species first.

Test [2] has the same target. In words: SEC; C4-2 nuclear extract (5 mg) on Sephacryl S-300 HR column, fractions immunoblotted.
Test [3] has the same target. In words: co-IP; total lysate of C4-2 cells, endogenous proteins; IP with anti-AR, anti-BMI1 or anti-RING1B, rabbit IgG as control; NP-40 lysis buffer, antibodies at 4 °C overnight.
Test [4] deals with AR variant AR-V7, endogenous in 22Rv1 cells (human (endogenous in 22Rv1)) (UniProt P10275). In words: co-IP; total lysate of 22Rv1 cells, endogenous proteins; IP with anti-AR, anti-BMI1 or anti-RING1B, rabbit IgG as control.
Test [5] concerns the target androgen receptor (AR), full length, endogenous (human (endogenous in C4-2, 22Rv1, LuCaP PDX tissue)) (UniProt P10275). Description: co-IP; nuclear extracts of 22Rv1 cells grown in charcoal-stripped serum medium (androgen-depleted) for 48 h.
Test [6] has as its target AR variant AR-V7, endogenous in 22Rv1 cells (human (endogenous in 22Rv1)) (UniProt P10275). Described as above.
In test [7] the target is androgen receptor (AR), full length, endogenous (human (endogenous in C4-2, 22Rv1, LuCaP PDX tissue)) (UniProt P10275). In words: co-IP; lysates of CRPC patient-derived xenograft tissues LuCaP 35CR and 86.2CR; anti-BMI1 or anti-AR antibody, rabbit IgG as control. For orientation: In xenograft studies the graft and the host belong to different species.
Test [8] has the same target. Description: co-IP; total lysate of 22Rv1 cells, endogenous proteins; IP with anti-AR, anti-BMI1 or anti-RING1B, rabbit IgG as control.
For test [9] the target is unchanged. In words: co-IP; fractions #16 and #26 of the size-exclusion chromatography of C4-2 nuclear extracts; IP with anti-BMI1, anti-AR or anti-RING1B, rabbit IgG as control.
For test [10], the target named is AR-V7, ectopically overexpressed in 293T cells (UniProt P10275). Description: co-IP; lysates of 293T cells transfected with full-length wild-type AR, AR-V7 or AR-V^e567s; IP with anti-AR or anti-BMI1 antibody, rabbit IgG as control.
The target in test [11] is androgen receptor (AR), full length, endogenous (human (endogenous in C4-2, 22Rv1, LuCaP PDX tissue)) (UniProt P10275). In words: co-IP; total lysate of C4-2 cells, endogenous proteins; IP with anti-AR, anti-BMI1 or anti-RING1B, rabbit IgG as control; NP-40 lysis buffer, antibodies at 4 °C overnight.
The next test deals with Halo-AR (full length) (UniProt P10275). Description: pull-down; lysates of 293T cells transfected with Halo-AR constructs or empty vector; halo-tag magnetic beads, immunoblot. For orientation: Immunoblotting shows a protein as a band on a membrane.
Test [12] deals with BMI1 (B lymphoma Mo-MLV insertion region 1) (human (endogenous in C4-2, 22Rv1, LuCaP PDX tissue, 293T)) (UniProt P35226). In words: co-IP; lysates of 293T cells transfected with Halo-AR constructs or empty vector; IP with anti-BMI1 antibody, immunoblot.
Test [13] addresses RING1B of the in vitro-binding assay (Fig. 3d) (UniProt Q99496). In words: co-IP; in vitro-binding assay: GST-mBMI1 constructs incubated with RING1B for 12 h, IP with anti-RING1B antibody; both purified.
Test [14] concerns the target T1, androgen receptor (AR), full length, endogenous (human (endogenous in C4-2, 22Rv1, LuCaP PDX tissue)), P10275.
T1 chain: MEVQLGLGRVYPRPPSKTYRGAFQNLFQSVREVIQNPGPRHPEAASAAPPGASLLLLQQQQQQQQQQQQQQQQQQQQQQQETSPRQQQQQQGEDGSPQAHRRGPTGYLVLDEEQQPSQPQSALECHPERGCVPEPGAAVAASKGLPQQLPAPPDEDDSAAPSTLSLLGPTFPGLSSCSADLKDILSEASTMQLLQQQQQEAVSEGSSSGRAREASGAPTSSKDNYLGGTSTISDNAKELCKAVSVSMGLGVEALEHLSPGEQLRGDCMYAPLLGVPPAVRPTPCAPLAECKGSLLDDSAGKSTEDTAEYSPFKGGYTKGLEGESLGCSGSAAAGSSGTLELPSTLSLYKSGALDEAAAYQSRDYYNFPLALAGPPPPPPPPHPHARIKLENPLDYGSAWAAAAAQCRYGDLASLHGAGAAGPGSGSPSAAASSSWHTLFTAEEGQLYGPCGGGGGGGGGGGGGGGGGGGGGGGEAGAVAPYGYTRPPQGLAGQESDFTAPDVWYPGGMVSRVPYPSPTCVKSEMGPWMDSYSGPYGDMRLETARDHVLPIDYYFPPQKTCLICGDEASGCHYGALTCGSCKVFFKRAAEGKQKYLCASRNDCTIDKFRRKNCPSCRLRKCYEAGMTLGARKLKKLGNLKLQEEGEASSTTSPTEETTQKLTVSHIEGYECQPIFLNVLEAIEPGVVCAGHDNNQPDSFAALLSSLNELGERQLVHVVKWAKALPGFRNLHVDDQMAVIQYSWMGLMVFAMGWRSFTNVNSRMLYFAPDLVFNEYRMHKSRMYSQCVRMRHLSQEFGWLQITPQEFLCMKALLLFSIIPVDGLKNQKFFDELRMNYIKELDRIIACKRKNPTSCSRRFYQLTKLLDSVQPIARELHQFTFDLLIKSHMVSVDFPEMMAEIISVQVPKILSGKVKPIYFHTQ
In words: co-IP; total lysate of 22Rv1 cells, endogenous proteins; IP with anti-AR, anti-BMI1 or anti-RING1B, rabbit IgG as control. The settings on record: remark: other sources report otherwise.

Test [15] deals with T1, androgen receptor (AR), full length, …. Description: co-IP; fractions #16 and #26 of the size-exclusion chromatography of C4-2 nuclear extracts; IP with anti-BMI1, anti-AR or anti-RING1B, rabbit IgG as control. The settings on record: remark: other sources report otherwise.
Test [16] shares this target. Description: co-IP; total lysate of C4-2 cells, endogenous proteins; IP with anti-AR, anti-BMI1 or anti-RING1B, rabbit IgG as control; NP-40 lysis buffer, antibodies at 4 °C overnight. Particulars: remark: other sources report otherwise.
In test [17] the target is T2, RING1B (ring finger protein 2), endogenous (human (endogenous in C4-2, 22Rv1)), Q99496.
T2 chain: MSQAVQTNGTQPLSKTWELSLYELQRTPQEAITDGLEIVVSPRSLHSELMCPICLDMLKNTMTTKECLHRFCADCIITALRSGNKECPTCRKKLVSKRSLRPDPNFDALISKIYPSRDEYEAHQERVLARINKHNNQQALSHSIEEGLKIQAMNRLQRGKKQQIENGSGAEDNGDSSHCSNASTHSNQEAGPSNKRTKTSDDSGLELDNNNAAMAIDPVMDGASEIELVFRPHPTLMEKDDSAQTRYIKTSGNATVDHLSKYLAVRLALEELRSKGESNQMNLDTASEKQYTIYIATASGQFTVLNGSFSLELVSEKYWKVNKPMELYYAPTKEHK
In words: co-IP; fractions #16 and #26 of the size-exclusion chromatography of C4-2 nuclear extracts; IP with anti-BMI1, anti-AR or anti-RING1B, rabbit IgG as control. Particulars: remark: other sources report otherwise.

Results are given in words; binding and its absence hold for the method and conditions named. For some of these results: Binding seen in cells or lysates may run through a third protein. Some binding calls cover weakened binding; strength is not graded here. For some of these results: Sequences can lack the tags named with a protein.

As for “androgen receptor (AR), full length, endogenous (from UniProt P10275 1-920)”, the binding result in test [1], in test [2] and in test [3] was “binds” in each case.
Take “RING1B (ring finger protein 2), endogenous (from UniProt Q99496 1-336)”: in test [4], the binding result is recorded as “no binding”.
As for “BMI1 (B lymphoma Mo-MLV insertion region 1) (from UniProt P35226 1-326)”, the binding result in test [5], in [6], in test [7], in test [8], in test [4] and in [9] was “binds” in each case. Besides, the binding result (in test [10]; in test [11]; with Halo-AR (full length)) was “binds” each time.
In the case of “Halo-AR (full length) (from UniProt P10275 1-920)”, the binding result in test [12] was “binds”.

B1: GST fusion protein containing full-length mBMI1 (protein, UniProt P25916 1-324)
chain: MHRTTRIKITELNPHLMCVLCGGYFIDATTIIECLHSFCKTCIVRYLETSKYCPICDVQVHKTRPLLNIRSDKTLQDIVYKLVPGLFKNEMKRRRDFYAAHPSADAANGSNEDRGEVADEEKRIITDDEIISLSIEFFDQSRLDRKVNKEKPKEEVNDKRYLRCPAAMTVMHLRKFLRSKMDIPNTFQIDVMYEEEPLKDYYTLMDIAYIYTWRRNGPLPLKYRVRPTCKRMKMSHQRDGLTNAGELESDSGSDKANSPAGGVPSTSSCLPSPSTPVQSPHPQFPHISSTMNGTSNSPSANHQSSFASRPRKSSLNGSSATSSG
Consider B1, for which the binding entry in test [13] is recorded as “binds”.

B2: RING1B (ring finger protein 2), endogenous, Q99496 1-336 (protein)
chain: MSQAVQTNGTQPLSKTWELSLYELQRTPQEAITDGLEIVVSPRSLHSELMCPICLDMLKNTMTTKECLHRFCADCIITALRSGNKECPTCRKKLVSKRSLRPDPNFDALISKIYPSRDEYEAHQERVLARINKHNNQQALSHSIEEGLKIQAMNRLQRGKKQQIENGSGAEDNGDSSHCSNASTHSNQEAGPSNKRTKTSDDSGLELDNNNAAMAIDPVMDGASEIELVFRPHPTLMEKDDSAQTRYIKTSGNATVDHLSKYLAVRLALEELRSKGESNQMNLDTASEKQYTIYIATASGQFTVLNGSFSLELVSEKYWKVNKPMELYYAPTKEHK
Regarding B2, the binding entry in test [14], in [15] and in test [16] was “no binding” in each case.

B3: androgen receptor (AR), full length, endogenous, P10275 1-920 (protein)
chain: MEVQLGLGRVYPRPPSKTYRGAFQNLFQSVREVIQNPGPRHPEAASAAPPGASLLLLQQQQQQQQQQQQQQQQQQQQQQQETSPRQQQQQQGEDGSPQAHRRGPTGYLVLDEEQQPSQPQSALECHPERGCVPEPGAAVAASKGLPQQLPAPPDEDDSAAPSTLSLLGPTFPGLSSCSADLKDILSEASTMQLLQQQQQEAVSEGSSSGRAREASGAPTSSKDNYLGGTSTISDNAKELCKAVSVSMGLGVEALEHLSPGEQLRGDCMYAPLLGVPPAVRPTPCAPLAECKGSLLDDSAGKSTEDTAEYSPFKGGYTKGLEGESLGCSGSAAAGSSGTLELPSTLSLYKSGALDEAAAYQSRDYYNFPLALAGPPPPPPPPHPHARIKLENPLDYGSAWAAAAAQCRYGDLASLHGAGAAGPGSGSPSAAASSSWHTLFTAEEGQLYGPCGGGGGGGGGGGGGGGGGGGGGGGEAGAVAPYGYTRPPQGLAGQESDFTAPDVWYPGGMVSRVPYPSPTCVKSEMGPWMDSYSGPYGDMRLETARDHVLPIDYYFPPQKTCLICGDEASGCHYGALTCGSCKVFFKRAAEGKQKYLCASRNDCTIDKFRRKNCPSCRLRKCYEAGMTLGARKLKKLGNLKLQEEGEASSTTSPTEETTQKLTVSHIEGYECQPIFLNVLEAIEPGVVCAGHDNNQPDSFAALLSSLNELGERQLVHVVKWAKALPGFRNLHVDDQMAVIQYSWMGLMVFAMGWRSFTNVNSRMLYFAPDLVFNEYRMHKSRMYSQCVRMRHLSQEFGWLQITPQEFLCMKALLLFSIIPVDGLKNQKFFDELRMNYIKELDRIIACKRKNPTSCSRRFYQLTKLLDSVQPIARELHQFTFDLLIKSHMVSVDFPEMMAEIISVQVPKILSGKVKPIYFHTQ
As for B3, the binding result in [17] was “no binding”.
